{"source": "PubChem BioAssay AID602196 – INSERM | 2012", "screen": "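Genes whose knock-down alters cisplatin killing of lung cancer cells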", "cell system": "human A549 lung cancer cells", "knock-down reagent": "siRNA pair against human genes", "duration": "48 h transfection before cisplatin; time from cisplatin to read-out not stated", "treatment": "cisplatin at a dose killing half of control-siRNA cells; exact dose and duration not given", "read-out": "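Cisplatin cell death as a shift from the 50% death seen with control siRNA; siRNAs toxic or growth-blocking alone scored 0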", "reading the numbers": "two-siRNA summed score (-2 to +2): higher = both siRNAs protect from cisplatin killing; -2 means both sensitise; mean protection from cisplatin (shift in death): higher = protection from cisplatin killing", "active means": "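Each siRNA scores 0 if harmful alone by LDH or WST-1, otherwise +1 if it reduces and -1 if it increases cisplatin killing; a gene is active when both siRNAs agree (sum +2 or -2)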", "calls": "active = both siRNAs shift cisplatin killing the same way; inactive = no consistent shift, or siRNA harmful alone", "note": "Here is one part, drawn at random, of about 23,000 deposited reagents. In the full data, 455 (2%) got an active call. 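Active includes both protection and sensitisation; some change values fall well beyond the stated -50 to +50 range.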 Further read-outs or replicates are left out here. Not stated in the record: the amount of reagent."}
{"gene knocked down":"GDAP2","two-siRNA summed score (-2 to +2)":0,"mean protection from cisplatin (shift in death) (%)":-0.5,"Call":"inactive"}
{"gene knocked down":"LOC391337","two-siRNA summed score (-2 to +2)":0,"mean protection from cisplatin (shift in death) (%)":1.7,"Call":"inactive"}
{"gene knocked down":"SH2B3","two-siRNA summed score (-2 to +2)":0,"mean protection from cisplatin (shift in death) (%)":0.1,"Call":"inactive"}
{"gene knocked down":"LOC145845","two-siRNA summed score (-2 to +2)":0,"mean protection from cisplatin (shift in death) (%)":-0.7,"Call":"inactive"}
{"gene knocked down":"DKFZp434P0216","two-siRNA summed score (-2 to +2)":0,"mean protection from cisplatin (shift in death) (%)":22.7,"Call":"inactive"}
{"gene knocked down":"MMAA","two-siRNA summed score (-2 to +2)":1,"mean protection from cisplatin (shift in death) (%)":9.3,"Call":"inactive"}
{"gene knocked down":"LTC4S","two-siRNA summed score (-2 to +2)":0,"mean protection from cisplatin (shift in death) (%)":12.9,"Call":"inactive"}
{"gene knocked down":"PPARA","two-siRNA summed score (-2 to +2)":0,"mean protection from cisplatin (shift in death) (%)":-17.9,"Call":"inactive"}
{"gene knocked down":"EIF1AD","two-siRNA summed score (-2 to +2)":0,"mean protection from cisplatin (shift in death) (%)":10.3,"Call":"inactive"}
{"gene knocked down":"PER3","two-siRNA summed score (-2 to +2)":0,"mean protection from cisplatin (shift in death) (%)":6.6,"Call":"inactive"}
{"gene knocked down":"MYBPHL","two-siRNA summed score (-2 to +2)":-1,"mean protection from cisplatin (shift in death) (%)":-8.3,"Call":"inactive"}
{"gene knocked down":"KIF13B","two-siRNA summed score (-2 to +2)":0,"mean protection from cisplatin (shift in death) (%)":-18.8,"Call":"inactive"}
{"gene knocked down":"MIER2","two-siRNA summed score (-2 to +2)":0,"mean protection from cisplatin (shift in death) (%)":-2.1,"Call":"inactive"}
{"gene knocked down":"LOC440732","two-siRNA summed score (-2 to +2)":0,"mean protection from cisplatin (shift in death) (%)":6.5,"Call":"inactive"}
{"gene knocked down":"RRAGA","two-siRNA summed score (-2 to +2)":0,"mean protection from cisplatin (shift in death) (%)":5.4,"Call":"inactive"}
{"gene knocked down":"CUL3","two-siRNA summed score (-2 to +2)":-1,"mean protection from cisplatin (shift in death) (%)":-11.3,"Call":"inactive"}
{"gene knocked down":"SCARB1","two-siRNA summed score (-2 to +2)":0,"mean protection from cisplatin (shift in death) (%)":4.6,"Call":"inactive"}
{"gene knocked down":"CDH2","two-siRNA summed score (-2 to +2)":0,"mean protection from cisplatin (shift in death) (%)":-0.3,"Call":"inactive"}
{"gene knocked down":"LOC126502","two-siRNA summed score (-2 to +2)":0,"mean protection from cisplatin (shift in death) (%)":-0.3,"Call":"inactive"}
{"gene knocked down":"LOC339553","two-siRNA summed score (-2 to +2)":1,"mean protection from cisplatin (shift in death) (%)":14.4,"Call":"inactive"}
{"gene knocked down":"OR5T3","two-siRNA summed score (-2 to +2)":0,"mean protection from cisplatin (shift in death) (%)":-3.6,"Call":"inactive"}
{"gene knocked down":"CREBL2","two-siRNA summed score (-2 to +2)":-1,"mean protection from cisplatin (shift in death) (%)":14.4,"Call":"inactive"}
{"gene knocked down":"PPIAP59","two-siRNA summed score (-2 to +2)":1,"mean protection from cisplatin (shift in death) (%)":9.4,"Call":"inactive"}
{"gene knocked down":"PRR35","two-siRNA summed score (-2 to +2)":0,"mean protection from cisplatin (shift in death) (%)":-1.6,"Call":"inactive"}
{"gene knocked down":"LOC388383","two-siRNA summed score (-2 to +2)":0,"mean protection from cisplatin (shift in death) (%)":7.1,"Call":"inactive"}
{"gene knocked down":"LOC439988","two-siRNA summed score (-2 to +2)":-1,"mean protection from cisplatin (shift in death) (%)":-4.8,"Call":"inactive"}
{"gene knocked down":"LOC389050","two-siRNA summed score (-2 to +2)":1,"mean protection from cisplatin (shift in death) (%)":12.8,"Call":"inactive"}
{"gene knocked down":"TEX13A","two-siRNA summed score (-2 to +2)":0,"mean protection from cisplatin (shift in death) (%)":0.1,"Call":"inactive"}
{"gene knocked down":"ERCC1","two-siRNA summed score (-2 to +2)":0,"mean protection from cisplatin (shift in death) (%)":14,"Call":"inactive"}
{"gene knocked down":"RABGGTB","two-siRNA summed score (-2 to +2)":0,"mean protection from cisplatin (shift in death) (%)":1.2,"Call":"inactive"}
{"gene knocked down":"SPATC1L","two-siRNA summed score (-2 to +2)":1,"mean protection from cisplatin (shift in death) (%)":9.9,"Call":"inactive"}

In a second layout: results already given.
gene knocked down | two-siRNA summed score (-2 to +2) | mean protection from cisplatin (shift in death) (%) | Call
MIER2 | 0 | -2.1 | inactive
LOC440732 | 0 | 6.5 | inactive
RRAGA | 0 | 5.4 | inactive
